Data: publication PMC5027247

Amino acid sequences for entries named in this document (tags omitted). A change or cut given only in a name is not applied to a line headed by its entry.
UniProt Q96CV9: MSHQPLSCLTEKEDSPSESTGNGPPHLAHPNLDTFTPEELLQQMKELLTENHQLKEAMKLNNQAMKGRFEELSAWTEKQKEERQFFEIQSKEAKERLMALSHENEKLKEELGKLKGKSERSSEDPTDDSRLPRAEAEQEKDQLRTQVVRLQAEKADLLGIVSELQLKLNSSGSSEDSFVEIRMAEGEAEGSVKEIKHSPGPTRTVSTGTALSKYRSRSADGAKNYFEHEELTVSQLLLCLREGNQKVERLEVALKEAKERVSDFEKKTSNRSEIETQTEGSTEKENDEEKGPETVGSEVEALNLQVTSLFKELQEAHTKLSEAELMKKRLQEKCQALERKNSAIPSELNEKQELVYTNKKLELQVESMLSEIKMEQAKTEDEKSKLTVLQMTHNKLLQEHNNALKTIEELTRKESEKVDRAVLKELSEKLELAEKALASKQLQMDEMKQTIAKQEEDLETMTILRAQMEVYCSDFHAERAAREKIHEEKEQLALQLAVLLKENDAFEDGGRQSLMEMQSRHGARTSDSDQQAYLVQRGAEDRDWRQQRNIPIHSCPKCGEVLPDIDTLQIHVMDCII
UniProt Q9UHD2: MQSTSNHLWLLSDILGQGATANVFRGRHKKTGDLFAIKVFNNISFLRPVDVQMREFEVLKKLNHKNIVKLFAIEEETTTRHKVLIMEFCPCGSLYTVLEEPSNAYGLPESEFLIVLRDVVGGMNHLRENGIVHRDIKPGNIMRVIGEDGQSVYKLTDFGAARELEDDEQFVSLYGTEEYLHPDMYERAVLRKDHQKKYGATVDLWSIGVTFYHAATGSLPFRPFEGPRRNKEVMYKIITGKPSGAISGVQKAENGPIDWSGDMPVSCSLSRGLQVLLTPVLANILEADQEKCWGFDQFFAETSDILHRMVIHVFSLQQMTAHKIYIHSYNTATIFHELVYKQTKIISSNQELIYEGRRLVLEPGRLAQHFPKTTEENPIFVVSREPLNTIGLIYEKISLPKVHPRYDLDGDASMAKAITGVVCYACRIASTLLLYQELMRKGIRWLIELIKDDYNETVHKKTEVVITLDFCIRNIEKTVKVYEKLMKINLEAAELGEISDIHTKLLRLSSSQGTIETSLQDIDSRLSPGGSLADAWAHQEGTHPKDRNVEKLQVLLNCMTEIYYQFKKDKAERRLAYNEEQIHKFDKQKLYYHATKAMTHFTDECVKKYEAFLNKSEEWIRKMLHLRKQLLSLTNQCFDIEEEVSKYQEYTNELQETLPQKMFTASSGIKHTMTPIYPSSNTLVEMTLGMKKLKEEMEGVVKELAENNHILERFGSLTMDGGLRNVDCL

Key:
[1] = biological target: Flag-tagged full-length OPTN (residues 1–577) (human) (UniProt Q96CV9); assay: co-IP; Flag-tagged OPTN and GFP-tagged TBK1 co-transfected in HEK293T; lysate on anti-Flag agarose beads, 4 h at 4 °C; western blot with anti-Flag and anti-GFP
[2] = biological target: Flag-tagged OPTN E50K (human) (UniProt Q96CV9); assay: as above

Substance | binding [1] | binding [2]
GFP-tagged TBK1 E696K (from UniProt Q9UHD2) | binds weakly | –
GFP-tagged TBK1 (residues 1–729) (from UniProt Q9UHD2 1-729) | – | binds

These are yes or no findings as the source states them, for the method shown. Binding seen in cells or lysates may run through a third protein. Binding calls can cover weak binding; strength is not graded here.
